From patent US8663912B2, “Fluorogenic substrate for ADAMTS13” (Washington University, priority 2011, dated 2014)
For at least one compound, name, drawing or mass did not settle the structure.

Biological target: T1, ADAMTS13 (Homo sapiens, UniProt Q76LX8)
T1 sequence (Q76LX8 75-1427): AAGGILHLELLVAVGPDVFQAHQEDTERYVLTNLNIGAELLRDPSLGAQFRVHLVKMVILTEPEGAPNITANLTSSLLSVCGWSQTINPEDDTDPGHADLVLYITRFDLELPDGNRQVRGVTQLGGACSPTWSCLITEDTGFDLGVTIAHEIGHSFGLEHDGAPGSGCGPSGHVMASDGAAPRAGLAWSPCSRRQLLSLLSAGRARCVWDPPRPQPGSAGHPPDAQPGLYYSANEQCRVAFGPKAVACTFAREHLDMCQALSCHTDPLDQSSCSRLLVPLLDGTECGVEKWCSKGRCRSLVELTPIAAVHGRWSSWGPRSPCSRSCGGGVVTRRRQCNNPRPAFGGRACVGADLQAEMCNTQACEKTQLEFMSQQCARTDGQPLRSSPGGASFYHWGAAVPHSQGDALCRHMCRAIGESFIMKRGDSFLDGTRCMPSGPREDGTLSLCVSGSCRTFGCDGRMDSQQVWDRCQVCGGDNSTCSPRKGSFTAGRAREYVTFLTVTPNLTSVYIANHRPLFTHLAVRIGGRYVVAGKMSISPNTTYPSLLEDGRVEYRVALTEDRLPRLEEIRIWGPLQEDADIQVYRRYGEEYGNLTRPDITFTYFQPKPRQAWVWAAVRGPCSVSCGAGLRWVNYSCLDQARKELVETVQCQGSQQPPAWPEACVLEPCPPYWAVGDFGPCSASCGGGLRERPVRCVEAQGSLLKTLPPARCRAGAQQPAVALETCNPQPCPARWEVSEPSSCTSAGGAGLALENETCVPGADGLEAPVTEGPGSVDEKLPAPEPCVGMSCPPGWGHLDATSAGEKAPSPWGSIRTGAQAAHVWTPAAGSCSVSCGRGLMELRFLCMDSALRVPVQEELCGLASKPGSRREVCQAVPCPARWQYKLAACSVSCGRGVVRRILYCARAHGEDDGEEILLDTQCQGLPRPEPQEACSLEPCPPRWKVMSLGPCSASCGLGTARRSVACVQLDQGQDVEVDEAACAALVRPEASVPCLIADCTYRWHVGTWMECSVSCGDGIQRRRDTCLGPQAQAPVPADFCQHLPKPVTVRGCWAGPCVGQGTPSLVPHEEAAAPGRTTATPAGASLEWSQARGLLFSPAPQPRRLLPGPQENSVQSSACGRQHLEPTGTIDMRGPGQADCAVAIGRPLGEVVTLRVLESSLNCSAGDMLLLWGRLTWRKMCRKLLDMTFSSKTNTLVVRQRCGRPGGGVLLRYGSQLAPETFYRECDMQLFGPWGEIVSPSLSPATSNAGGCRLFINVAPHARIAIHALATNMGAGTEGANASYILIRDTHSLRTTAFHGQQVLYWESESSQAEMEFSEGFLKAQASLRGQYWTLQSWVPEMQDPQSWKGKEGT
Assay: Effect of bilirubin and hemoglobin on FRETS-rVWF71 ADAMTS13 assays
Assay type: biochemical
Parameters: FRETS-rVWF71 cleavage by plasma ADAMTS13 (50 μL) was assessed in 200 μL reactions; from tissue; host or cells: human plasma or serum (pooled normal plasma, healthy donors, TTP patients)
Settings: bilirubin ≦20 mg/dL

## C=CC1=C(C)/C(=C/c2[nH]c(Cc3[nH]c(/C=C4\NC(=O)C(C)=C4C=C)c(C)c3CCC(=O)O)c(CCC(=O)O)c2C)NC1=O [bilirubin]
  effect on ADAMTS13 activity assays with FRETS-rVWF71: did not inhibit
